Source: PMC4707279
No constants are given. Whether binding was seen depends on the method and setting. Binding seen in cells or lysates may run through a third protein. Some entries that bind do so weakly or less than the wild type.

Protein sequences, listed by entry. Tags and fused reporters are not part of them. Residues count along the entry.
UniProt Q69ZK9, residues 15-836: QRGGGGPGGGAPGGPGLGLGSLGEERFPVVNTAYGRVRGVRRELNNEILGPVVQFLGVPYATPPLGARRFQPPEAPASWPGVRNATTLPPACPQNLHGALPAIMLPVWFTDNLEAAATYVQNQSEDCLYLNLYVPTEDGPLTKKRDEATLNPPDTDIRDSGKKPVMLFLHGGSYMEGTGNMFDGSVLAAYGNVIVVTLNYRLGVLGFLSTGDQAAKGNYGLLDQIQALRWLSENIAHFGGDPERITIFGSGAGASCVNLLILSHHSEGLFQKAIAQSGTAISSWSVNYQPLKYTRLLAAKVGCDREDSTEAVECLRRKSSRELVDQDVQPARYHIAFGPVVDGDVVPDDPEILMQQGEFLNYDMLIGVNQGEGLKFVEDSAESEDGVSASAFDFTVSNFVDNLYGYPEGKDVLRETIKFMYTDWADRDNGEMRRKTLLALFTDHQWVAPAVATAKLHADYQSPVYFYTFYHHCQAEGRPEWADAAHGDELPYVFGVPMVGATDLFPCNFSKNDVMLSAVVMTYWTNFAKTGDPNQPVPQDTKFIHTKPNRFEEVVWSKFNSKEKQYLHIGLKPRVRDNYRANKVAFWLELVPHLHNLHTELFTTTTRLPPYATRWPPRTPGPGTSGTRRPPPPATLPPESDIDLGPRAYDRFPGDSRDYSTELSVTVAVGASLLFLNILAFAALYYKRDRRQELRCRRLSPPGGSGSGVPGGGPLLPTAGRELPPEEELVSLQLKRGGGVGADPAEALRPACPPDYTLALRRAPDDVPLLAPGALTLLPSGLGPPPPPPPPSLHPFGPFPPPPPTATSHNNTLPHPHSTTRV
UniProt Q61327: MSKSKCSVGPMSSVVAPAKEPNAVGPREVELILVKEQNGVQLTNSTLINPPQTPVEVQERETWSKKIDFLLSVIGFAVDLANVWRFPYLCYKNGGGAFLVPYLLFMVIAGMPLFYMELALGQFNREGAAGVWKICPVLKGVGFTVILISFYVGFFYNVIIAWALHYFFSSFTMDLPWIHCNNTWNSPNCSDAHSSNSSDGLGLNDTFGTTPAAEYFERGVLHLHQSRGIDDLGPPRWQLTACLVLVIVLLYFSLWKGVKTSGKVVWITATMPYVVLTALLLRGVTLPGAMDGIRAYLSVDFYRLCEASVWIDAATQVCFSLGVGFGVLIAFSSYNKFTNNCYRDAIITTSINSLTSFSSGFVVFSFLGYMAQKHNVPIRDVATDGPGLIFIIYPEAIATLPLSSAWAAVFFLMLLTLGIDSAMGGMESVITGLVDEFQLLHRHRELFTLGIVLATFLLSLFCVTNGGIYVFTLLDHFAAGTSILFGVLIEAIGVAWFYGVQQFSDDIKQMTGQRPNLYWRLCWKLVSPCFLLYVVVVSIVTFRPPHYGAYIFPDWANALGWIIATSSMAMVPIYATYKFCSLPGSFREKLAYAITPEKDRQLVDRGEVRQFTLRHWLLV
UniProt O55192: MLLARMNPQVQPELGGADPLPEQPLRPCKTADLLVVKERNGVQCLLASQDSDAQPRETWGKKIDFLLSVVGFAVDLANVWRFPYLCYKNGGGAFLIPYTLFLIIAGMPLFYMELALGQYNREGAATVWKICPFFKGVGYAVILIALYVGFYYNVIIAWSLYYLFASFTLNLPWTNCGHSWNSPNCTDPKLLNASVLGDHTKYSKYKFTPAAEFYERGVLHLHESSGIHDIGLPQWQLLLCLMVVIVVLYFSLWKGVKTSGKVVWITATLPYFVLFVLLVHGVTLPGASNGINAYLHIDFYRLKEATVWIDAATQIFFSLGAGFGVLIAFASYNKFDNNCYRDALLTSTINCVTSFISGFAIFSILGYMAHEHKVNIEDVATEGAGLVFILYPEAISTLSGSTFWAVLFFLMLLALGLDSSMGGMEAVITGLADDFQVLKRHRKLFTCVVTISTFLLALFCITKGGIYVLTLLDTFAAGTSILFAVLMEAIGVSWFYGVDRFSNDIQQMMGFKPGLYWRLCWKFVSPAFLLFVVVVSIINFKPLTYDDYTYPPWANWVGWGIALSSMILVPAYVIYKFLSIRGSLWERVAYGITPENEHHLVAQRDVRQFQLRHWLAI

B1: collybistin (protein, UniProt Q3UTH8 1-516)
chain: MYDLITGDSIVSAEAVWDHVTMANRELAFKAGDVIKVLDASNKDWWWGQIDDEEGWFPASFVRLWVNQEDGVEEGPSDVQNGHLDPNSDCLCLGRPLQNRDQMRANVINEIMSTERHYIKHLKDICEGYLKQCRKRRDMFSDEQLKVIFGNIEDIYRFQMGFVRDLEKQYNNDDPHLSEIGPCFLEHQDGFWIYSEYCNNHLDACMELSKLMKDSRYQHFFEACRLLQQMIDIAIDGFLLTPVQKICKYPLQLAELLKYTAQDHSDYRYVAAALAVMRNVTQQINERKRRLENIDKIAQWQASVLDWEGEDILDRSSELIYTGEMAWIYQPYGRNQQRVFFLFDHQMVLCKKDLIRRDILYYKGRIDMDKYEVIDIEDGRDDDFNVSMKNAFKLHNKETEEVHLFFAKKLEEKIRWLRAFREERKMVQEDEKIGFEISENQKRQAAMTVRKASKQKGVNSARSVPPSYPPPQDPLNQGQYLVPDGIAQSQVFEFTEPKRSQSPFWQNFSRLTPFKK

Target: neuroligin 2 (mouse (endogenous in mouse brain)) (UniProt Q69ZK9)
Test: co-IP; mouse midbrain extract (50 mM Tris, 150 mM KCl, 1 mM DTT, 1 mM EDTA, 0.5% dodecyl maltoside, pH 7.4); goat anti-NLGN2 on protein G Dynabeads, 4°C overnight; NLGN2 null mice as negative control; Western blot

| binding | Molecule |
| --- | --- |
| no binding | dopamine transporter (from UniProt Q61327 1-619) |
| no binding | norepinephrine transporter (from UniProt O55192 1-617) |
| binds | B1 |
